Among the data in PubChem BioAssay AID493014 (National Center for Advancing Translational Sciences (NCATS), 2011) are AC50 values, retold here.

This is one part of the list. Further columns of the screen follow, without active or inactive calls. Most of these compounds were active or inconclusive in the main read-out, so they are no random draw. The note in brackets gives the kind of curve behind each potency; many fits are weak.

This test can be described thus: qHTS Assay to Find Inhibitors of Chronic Active B-Cell Receptor Signaling. As to conditions: ABC-DLBCL IkBa-CBG/CBR reporter, luminescence ratio (green luciferase fused to IkBa over red control in TMD8 lymphoma cells), 4 h. The method, boiled down: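 TMD8 ABC-DLBCL cells carrying doxycycline-inducible green luciferase fused to IkappaBalpha plus unfused red luciferase were exposed to compounds (up to 46 uM) for 4 hrs at 37C. Activity came from the overlap-corrected green/red luminescence ratio.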
In general terms: qHTS replaces the single test concentration by a dilution series.

The mark [1] stands for this setting: measured here: CBR red luminescence, cell number.
The mark [2] stands for this setting: measured here: IkBa-CBG green luminescence.

For the compound `O=C(CSc1nc(-c2ccccc2)nn1C(=O)c1ccccc1)Nc1cccc([N+](=O)[O-])c1`, under setting [1], the AC50 – broadly, the concentration giving half of the maximal activity seen – is 12.6 µM [falling, partial curve]. On to `CCOC(=O)C1=C(C)NC2=C(C1c1ccc([N+](=O)[O-])cc1)S(=O)(=O)c1ccccc12` (stereo not given), for which the half-maximal activity concentration (AC50) under setting [1] was 11.6 µM [rising, partial curve, poor fit]. On the same count and under the same terms, with `COc1cc(NC(=O)c2ccc(NS(=O)(=O)c3c(C)noc3C)cc2)cc(OC)c1` the figure was 25.1 µM [falling, partial curve, poor fit].

For `COc1cc(C(=O)Nc2cccc(-c3nncn3C)c2)cc(OC)c1OC`, the AC50 under setting [2] is 29.1 µM [falling, partial curve, poor fit]. Take `CCOC(=O)c1cnc2c(CC)cccc2c1NCCN1CCOCC1`: the AC50 under setting [1] is 3.98 µM [rising, single point].

Regarding `CCOC(=O)c1sc(N)c(C(=O)Nc2ccccc2)c1C`, under setting [1], the AC50 was 35.5 µM [falling, partial curve, poor fit]. On the same count and under the same terms, the same measure for `CCOc1ccc(CCNC(=O)c2ccc(OCc3c(C)noc3C)cc2)cc1OCC`: 0.206 µM [rising, full curve, poor fit]. `CCOC(=O)C(=O)Nc1ccc(S(=O)(=O)Nc2nccs2)cc1`: the half-maximal activity concentration (AC50) under setting [1] is 10 µM [falling, partial curve]. Same read-out and setting: with `CC1CCc2c(C(=O)Nc3ccccn3)csc2C1` (stereo not given) the figure was 1.58 µM [rising, partial curve, poor fit].

For the compound `CCOC(=O)N/N=C/c1c(C)nn(-c2cccc(C(F)(F)F)c2)c1Cl`, the concentration at half-maximal activity (AC50) runs as follows: under setting [1], 6.51 µM [rising, full curve, poor fit]; under setting [2], 32.6 µM [falling, partial curve, poor fit]. Regarding `COCCN(C(=O)Cn1c(C(F)(F)F)nc2ccccc21)c1c(N)n(Cc2ccccc2)c(=O)[nH]c1=O`, the half-maximal activity concentration (AC50) under setting [1] is 4.47 µM [falling, full curve]. Turning to `CCN(CC)CC(=O)Nc1ccc(-c2nc3cc(NC(=O)CN(CC)CC)ccc3o2)cc1`, the AC50 under setting [1] was 23.1 µM [rising, single point]. Consider `N#CCC(=O)NN=C1CCCCCCCCCCC1`, for which the concentration at half-maximal activity (AC50) under setting [1] was 0.112 µM [falling, full curve, poor fit]. As to `Cc1noc(C)c1CSCC(=O)Nc1nc2ccc(Oc3ccccc3)cc2s1`, the AC50 under setting [1] was 0.146 µM [falling, partial curve, poor fit]. As for `CCN(CC)CCN1C(=O)c2cccc3cc(N)cc(c23)C1=O`, the AC50 under setting [1] was 3.98 µM [falling, full curve]. Turning to `CC(=O)Nc1cccc(/C(C)=N/NC(=O)c2ccccc2Cl)c1`, under setting [1], the AC50 is 7.94 µM [falling, partial curve, poor fit]. The same measure, in the same setting: with `CC(C)OC(=O)Cn1nnc(-c2ccccc2)n1` the figure was 7.31 µM [rising, partial curve, poor fit]; with `COc1ccc(OC)c(C2=NS(=O)(=O)N(C)C(C(=O)NCc3cccs3)=C2)c1`, 15.8 µM [falling, single point]. Turning to `C/C(CC(=O)Nc1ccc(Cl)cc1Cl)=N\NC(=O)c1ccncc1`, under setting [1], the AC50 is 10 µM [falling, partial curve].

For `O=C1Nc2ccccc2S/C1=C/NCc1ccccc1Cl`, the concentration at half-maximal activity (AC50) under setting [1] was 3.16 µM [falling, partial curve, poor fit]. Still for that read-out and setting: with `Cc1ccccc1Oc1nc2c(C)cccn2c(=O)c1/C=C(\C#N)C(=O)NC1CCS(=O)(=O)C1` (stereo not given) the figure was 5.62 µM [falling, partial curve]. Still for that read-out and setting: with `CC(OC(=O)/C=C/c1ccc2ccccc2n1)C(=O)NCc1ccccc1` (stereo not given) the figure was 20.6 µM [falling, partial curve, poor fit]; with `Cc1cc(Cl)ccc1N=c1ssnc1Cl`, 29.1 µM [falling, single point]. On to `CC(C)(C)NC(=O)CN(C(=O)CNS(=O)(=O)c1ccccc1)c1ccc2c(c1)OCCO2`, for which the concentration at half-maximal activity (AC50) under setting [1] is 0.00461 µM [rising, full curve, poor fit].

Regarding `COc1ccc([N+](=O)[O-])cc1NC(=S)NC(NC(=O)C(c1ccccc1)c1ccccc1)C(Cl)(Cl)Cl` (stereo not given), the half-maximal activity concentration (AC50) under setting [1] is 17.8 µM [falling, single point].

As to `CC(=O)COC(=O)CNC(=O)c1ccc(Br)cc1`, under setting [1], the half-maximal activity concentration (AC50) is 4.11 µM [falling, partial curve, poor fit].

Regarding `CC(C)Cc1nc(SCc2cccnc2)c2c(=O)n(C)c(=O)n(C)c2n1`, the concentration at half-maximal activity (AC50) under setting [1] was 7.08 µM [falling, partial curve, poor fit].

Take `CCOC(=O)c1ccc(NC(=O)/C=C/c2cccs2)cc1`: the AC50 under setting [1] was 1.12 µM [falling, full curve]. As to `O=C(Nc1scc(-c2ccccc2)c1C(=O)O)c1ccccc1Cl`, the AC50 under setting [1] is 10 µM [falling, partial curve, poor fit]. With `COc1cc(-c2nc3ccc(C)cn3c2Nc2ccc3c(c2)OCCO3)ccc1O`, the half-maximal activity concentration (AC50) under setting [2] was 23.1 µM [falling, single point]. In the case of `Cc1cccc(N(C(=O)c2snc(C(N)=O)c2N)C(C(=O)NC2CCCC2)c2ccncc2)c1` (stereo not given), under setting [1], the half-maximal activity concentration (AC50) is 2.82 µM [rising, full curve, poor fit]. The same measure, in the same setting: the same measure for `Cc1csc(NC(=O)Cc2ccc(Br)cc2)n1`: 0.316 µM [rising, partial curve, poor fit]. As to `Cc1ccc(NC(=O)c2ccc(CSc3ccccn3)cc2)c(O)c1`, the AC50 is, setting by setting: under setting [1], 6.31 µM [falling, full curve]; under setting [2], 14.1 µM [rising, partial curve, poor fit]. Regarding `Cc1nn(-c2ccccc2)c(C)c1-c1nnc(C(F)(F)F)o1`, under setting [1], the AC50 was 0.794 µM [rising, full curve]. Consider `COC(=O)c1ccc(NC(=O)c2cccc(OC)c2)cc1`, for which the half-maximal activity concentration (AC50) under setting [1] is 6.31 µM [falling, partial curve, poor fit]. As for `C=CCN1C(=O)c2ccc(C(=O)OCC(=O)N(CC)C3CCS(=O)(=O)C3)cc2C1=O` (stereo not given), the half-maximal activity concentration (AC50) under setting [1] was 13 µM [falling, partial curve]. As for `O=C(COC(=O)c1c2c(nc3ccccc13)CCN(Cc1ccccc1)C2)Nc1c(F)cccc1F`, under setting [1], the concentration at half-maximal activity (AC50) is 5.17 µM [rising, single point]. Consider `Cc1ccc(C(=O)NCC(=O)Nc2ccc(C)c(S(=O)(=O)Nc3ccc(Cl)cc3)c2)s1`, for which the AC50 under setting [1] was 35.5 µM [falling, single point]. With `CS(=O)(=O)Nc1ccc(C2=NN(C(=O)c3ccco3)C(c3ccc(F)cc3)C2)cc1` (stereo not given), the AC50 under setting [1] was 35.5 µM [falling, single point]. As to `Cc1c(Cl)ccc2sc(N3CCN(C(=O)C4=COCCO4)CC3)nc12`, under setting [1], the AC50 was 4.11 µM [rising, partial curve, poor fit]. For the compound `c1coc(CNc2nc3ccccc3n2CCN2CCOCC2)c1`, the AC50 under setting [1] is 20.6 µM [falling, single point].

Take `O=c1[nH]nc(SCCS(=O)(=O)c2ccc(F)cc2)n1-c1ccccc1C(F)(F)F`: under setting [1], the AC50 is 12.6 µM [falling, partial curve].

Regarding `CC1NC(=S)N(C2CCCCC2)C1=O` (stereo not given), under setting [1], the AC50 was 15.8 µM [falling, partial curve].

Consider `COc1cc(N)c(Cl)cc1C(=O)OCC(=O)NC1CCCC1`, for which the AC50 under setting [1] was 7.08 µM [rising, full curve, poor fit]. Regarding `O=C(Nc1ccc2c(c1)OCCO2)C1CCCN1S(=O)(=O)c1ccc(Cl)cc1` (stereo not given), the AC50 under setting [1] is 23.1 µM [rising, partial curve, poor fit]. On the same count and under the same terms, the same measure for `NCCCCCc1nnc(SCc2ccccc2Cl)o1`: 6.31 µM [falling, full curve, poor fit]. Regarding `Oc1ccc(O)c(Cc2nc3ccccc3[nH]2)c1`, the AC50 under setting [1] is 14.1 µM [falling, single point]. Consider `CC(=O)NCCc1nc2cc(NC(=O)c3ccc(F)cc3)ccc2n1C`, for which, under setting [1], the AC50 is 11.2 µM [falling, partial curve, poor fit]. As to `COc1cccc2cc(/C(C)=N/NC(=O)c3ccco3)oc12`, the half-maximal activity concentration (AC50) under setting [1] is 11.2 µM [falling, partial curve, poor fit]. On the same count and under the same terms, the same measure for `Cc1ccc(NC(=O)c2ccc(F)cc2)cc1S(=O)(=O)N1CCCCCC1`: 11.2 µM [falling, single point]; for `CS(=O)(=O)c1ccc(C(=O)NCCN2C(=O)S/C(=C\c3cccnc3)C2=O)cc1[N+](=O)[O-]`: 17.8 µM [falling, partial curve, poor fit]; for `COc1cc(CO)ccc1Oc1nnnn1-c1ccc(C(N)=O)cc1`: 7.31 µM [rising, full curve, poor fit]. As for `CCOc1ccc(NC(=O)c2c(Nc3ccccc3C)sc(C(=O)c3ccccc3)c2N)cc1`, the AC50 under setting [1] was 31.6 µM [falling, single point].
